The nature of this test: qHTS Assay for Lipid Storage Modulators in Drosophila S3 Cells.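 For cell number change: cells counted by Cell Tracker Red CMTPX staining in the red channel.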 To be noted: BODIPY lipid droplet fluorescence, 18-24 h; for cell number change: measured here: cell count max response, cells fed with added oleic acid. In a few lines: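 Laser-scanning cytometry quantifies lipid droplet accumulation (500–530 nm total intensity; droplet/cell object ratio) in oleic acid-fed (400 uM added) Drosophila S3 cells treated with a concentration series. 20 uM Triacsin C defined 100% inhibition.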
A general note: In qHTS, concentration-response curves come from the screen itself.

Setting [1] is: measured here: cell number channel AC50, cells fed with added oleic acid.
Setting [2] is: measured here: lipid fluorescence (Fed channel) AC50, cells fed with added oleic acid.

The other results are listed elsewhere or left out. These are further read-outs of the screen, such as a control signal, another cell line or another target. No call is given for them. The list favours compounds with an active or inconclusive main result. Words in brackets tell the shape of the fitted curve; partial curves, single points and poor fits give uncertain potencies.

The term AC50 denotes the concentration at which the activity in the assay is half-maximal. High values mean weaker potency, low ones greater potency.

With `CN(C)/C=C/c1oc2ccc(O)cc2c1[N+](=O)[O-]`, the AC50 under setting [1] is 0.0651 µM [rising, full curve, poor fit].

Turning to `CC(OC(=O)c1nsc(Cl)c1Cl)C(=O)NC1CCCCC1` (stereo not drawn), the cell number change worked out at 53.8%. Also, the AC50 under setting [1] was 32.6 µM [rising, partial curve, poor fit]. Under setting [2], the AC50 was 0.116 µM [falling, single point]. With `CC1(C)C2CC=C(/C=N/NC(=S)Nc3cccnc3)C1C2` (stereo not drawn), the cell number change amounted to 0.261%. Under setting [1], the AC50 was 0.326 µM [falling, partial curve, poor fit]. The AC50 under setting [2] is 0.0517 µM [falling, full curve, poor fit]. Consider `CCc1ccc2[nH]c3nc(C)cc(C)c3c(=O)c2c1`, for which the AC50 under setting [2] is 0.461 µM [rising, single point]. Consider `Cc1cccc(NC(=O)CN(C)S(=O)(=O)c2cnc[nH]2)c1`, for which the cell number change is -18.4%. Consider `Cc1c(NC(=O)C(C)OC(=O)c2cccc(S(=O)(=O)N(C)C)c2)c(=O)n(-c2ccccc2)n1C` (stereo not drawn), for which the cell number change was 12.9%. In addition, the AC50 under setting [1] is 6.51 µM [rising, single point]. For `O=C1C(Nc2ccccc2)=C2CCCC=C2N1c1ccccc1`, the cell number change is -33.8%. Under setting [1], the AC50 was 2.31 µM [falling, partial curve].

As to `Cc1cccn2c(=O)c3cc(C(=O)NC4CCCCC4)c(=N)n(CCN4CCOCC4)c3nc12`, the cell number change is 13.3%. For `CC(C)COC(=O)CNc1n[nH]c(=S)[nH]c1=O`, the cell number change stood at 15.3%. Turning to `CCCCn1c(=O)[nH]c(=O)c2c1nc(-c1ccc(OC(F)F)c(OC)c1)n2C`, the cell number change is -21%. Besides, the AC50 under setting [1] was 0.0291 µM [falling, full curve, poor fit].

Consider `O=C(Nc1nc(-c2cccc3ccccc23)cs1)c1cnccn1`, for which the cell number change is -35.3%. Besides, the AC50 under setting [1] was 29.1 µM [falling, single point]. For the same compound, the AC50 under setting [2] is 29.1 µM [falling, single point]. `C=CCSc1nnc(-c2ccc(Cl)cc2Cl)o1`: the cell number change was -25.8%. Under setting [2], the AC50 was 29.1 µM [rising, single point].

For `COc1cccc2[nH]c3c(=O)n(CCN(C)C)cnc3c12`, the cell number change is -15.9%. For the same compound, the AC50 under setting [2] was 6.51 µM [falling, single point]. As for `Cc1cccc(C)c1NC(=O)CNC(=O)CCC(=O)N1CCOCC1`, under setting [2], the AC50 is 6.51 µM [falling, single point]. In the case of `O=C(Cc1ccccc1)Nc1scc(-c2ccccc2)c1C(=O)N1CCOCC1`, the cell number change was -60.6%. Under setting [1], the AC50 is 29.1 µM [falling, single point]. Also, the AC50 under setting [2] is 0.651 µM [falling, single point]. With `O=C(NNC(=O)C1CCN(C(=O)Nc2ccccc2)CC1)c1ccc([N+](=O)[O-])cc1`, the cell number change is -46.1%. Also, under setting [1], the AC50 is 0.92 µM [falling, full curve, poor fit]. Under setting [2], the AC50 is 29.1 µM [rising, single point].

`CC1CCN(C2=C(NS(=O)(=O)c3ccc(Cl)cc3)C(=O)c3ccccc3C2=O)CC1`: the cell number change was -87.8%. In addition, under setting [1], the AC50 was 5.8 µM [falling, full curve]. Moreover, the AC50 under setting [2] is 6.51 µM [falling, partial curve]. Take `CCn1c(=O)c2cc(C(=O)Nc3cc(C)on3)sc2c2ccccc21`: the cell number change amounted to 5.35%. For the same compound, under setting [2], the AC50 was 0.103 µM [rising, full curve].

As to `COc1ccc(OC)c(C(=O)c2oc3ccccc3c2NC(C)=O)c1`, the cell number change is -4.04%. Under setting [1], the AC50 is 0.82 µM [rising, full curve]. Moreover, under setting [2], the AC50 was 1.84 µM [rising, partial curve, poor fit]. Turning to `CN(C(=O)CCNC(=O)Cn1cnc2ccccc2c1=O)c1ccc(F)cc1`, the cell number change was -13%. For `Cc1ccc(S(=O)(=O)/N=C(/Nc2cccc3ccccc23)c2ccc(F)cc2)cc1`, the cell number change was -2.29%. Under setting [2], the AC50 is 29.1 µM [rising, single point]. For `COc1ccc(NS(=O)(=O)c2ccc(OC)c(NC(=O)CNC(=O)c3ccc(OC)cc3)c2)cc1`, the cell number change amounted to 4.32%. Also, the AC50 under setting [1] is 0.0058 µM [falling, full curve, poor fit]. Besides, the AC50 under setting [2] is 0.0259 µM [falling, full curve, poor fit]. In the case of `CC[N+]1(C)CCC(=C2c3ccccc3CC(=O)c3sccc32)CC1` (stereo not drawn), the cell number change is -6.67%. Further, the AC50 under setting [2] was 0.00461 µM [falling, full curve, poor fit]. Take `CCn1c(=O)c2ccccc2n2c(SCC(=O)NCc3cccs3)nnc12`: the cell number change came to 12.1%. As to `O=C(Nc1ccc2[nH]ncc2c1)c1ccccc1Cl`, the cell number change was -5.8%. As for `CCCS(=O)(=O)C/C(N)=N/OC(=O)c1ccc(Cl)cc1`, the cell number change is -3.95%. For the compound `O=C1Cc2cc(S(=O)(=O)Nc3cccc([N+](=O)[O-])c3)cc3c2N1CCC3`, the AC50 under setting [1] was 0.651 µM [falling, single point]. Take `COc1ccc(Cl)cc1S(=O)(=O)N(C)CC(=O)NCCCn1ccnc1`: the cell number change was -8.97%. On to `Cc1nn(C)c(Oc2cccc(Cl)c2)c1C#N`, for which the cell number change is -36.4%. The AC50 under setting [1] is 1.3 µM [falling, full curve]. Under setting [2], the AC50 is 0.092 µM [falling, full curve]. For `Cc1c(/C=N\NC(=O)c2ccc(F)cc2)cnn1C`, the cell number change was found to be 32%. The AC50 under setting [1] was 0.00461 µM [rising, full curve, poor fit]. Turning to `O=C(CN(C(=O)c1csnn1)c1cccc(Cl)c1)NC1CCCC1`, the cell number change is 5.13%. The AC50 under setting [2] was 5.17 µM [rising, single point]. For the compound `Cc1cccn2c(=O)c(C=NCc3ccccc3)c(NCCO)nc12`, the cell number change is -12.8%. Moreover, the AC50 under setting [2] was 32.6 µM [falling, single point]. Consider `CCOC(=O)c1[nH]c2ccc(OC)cc2c1NC(=O)CCN1CCCC(C)C1` (stereo not drawn), for which the cell number change was -7.09%. For `COC(=O)c1[nH]c(C)c(/C(O)=C2\C(=O)C(=O)N(CCN(C)C)C2c2ccc(C)o2)c1C` (stereo not drawn), the cell number change amounted to 13.5%. Besides, the AC50 under setting [2] is 16.4 µM [rising, partial curve].

For `O=C1CC(c2ccc3c(c2)OCCO3)Oc2ccc([N+](=O)[O-])cc21` (stereo not drawn), the concentration at half-maximal activity (AC50) under setting [2] is 5.8 µM [falling, full curve]. In the case of `Cc1cccn2c(=O)c(C=O)c(N3CCN(C)CC3)nc12`, the cell number change came out at 25.5%. For the same compound, the AC50 under setting [2] is 6.51 µM [falling, single point]. Regarding `Cc1cccc(OCc2n(CC(=O)OC3CC(C)CCC3C(C)C)c3ccccc3[n+]2C)c1` (stereo not drawn), the cell number change was -66.5%. Moreover, the AC50 under setting [1] is 18.4 µM [falling, single point]. In addition, the AC50 under setting [2] was 29.1 µM [falling, single point]. For `Cc1ccnc(NC(=O)c2ccoc2C)c1`, the cell number change turned out to be 19.3%. In addition, under setting [2], the AC50 is 10.3 µM [rising, partial curve]. Turning to `O=C(N/N=C/c1ccncc1)c1cccc(S(=O)(=O)N2CCCC2)c1`, the AC50 is, setting by setting: under setting [1], 2.59 µM [falling, partial curve]; under setting [2], 6.51 µM [falling, single point]. Consider `COc1ccc(N2CCN(C(=O)CN3CCN(c4nc(-c5ccc(F)cc5)cs4)CC3)CC2)cc1`, for which the cell number change is -63.5%. The AC50 under setting [1] is 14.6 µM [falling, partial curve]. Also, the AC50 under setting [2] is 29.1 µM [falling, single point]. As for `CCOCCCNC(=O)C1CCC(CNS(=O)(=O)c2ccc(F)cc2)CC1` (stereo not drawn), the cell number change was -13.2%. For the same compound, the AC50 under setting [2] is 3.66 µM [falling, partial curve, poor fit]. Take `O=C(NCC1CCCO1)c1ccc(CS(=O)(=O)c2ccc(Br)cc2)o1` (stereo not drawn): the cell number change stood at 10.5%. Moreover, under setting [1], the AC50 was 0.103 µM [rising, full curve, poor fit]. `Cc1nc2ccccc2nc1N/N=C/c1ccc(O)cc1O`: the cell number change was -32.6%. Further, the AC50 under setting [1] was 20.6 µM [falling, single point]. Also, the AC50 under setting [2] is 29.1 µM [falling, single point]. Turning to `CCCCN1C2CCCC1CC(NC(=O)c1cccc(OC)c1)C2` (stereo not drawn), the cell number change worked out at 8.8%. Under setting [2], the AC50 is 6.51 µM [rising, single point]. Take `Cc1ncc([N+](=O)[O-])n1CC(=O)NC1CCCC1`: the cell number change was -58.4%. Under setting [1], the AC50 is 0.291 µM [falling, full curve]. Moreover, under setting [2], the AC50 is 0.326 µM [falling, full curve]. For the compound `CCOc1ccccc1C1CC(=O)NC(SCC(=O)Nc2nccs2)=C1C#N` (stereo not drawn), the AC50 under setting [1] was 0.0326 µM [rising, full curve, poor fit]. Take `COc1ccc(NS(=O)(=O)c2ccc(C)c(C(=O)N(C)Cc3ccc(C)cc3)c2)cc1`: the cell number change was 85.9%. Moreover, the AC50 under setting [1] was 6.51 µM [rising, full curve].

As to `CCOc1ccc2[nH]c3c(NCCN(CC)CC)ncnc3c2c1`, the AC50 is 6.51 µM [rising, single point] under setting [1] and 6.51 µM [rising, single point] under setting [2].

`c1ccc(-c2cc3c(nn2)CCc2nonc2-3)cc1`: the AC50 under setting [2] is 0.731 µM [rising, single point]. As for `O=C(O)c1ccc(OS(=O)(=O)c2ccc(Cl)s2)c(Cl)c1`, the cell number change is -0.889%. Besides, under setting [2], the AC50 was 11.6 µM [rising, partial curve, poor fit].

For the compound `COc1ccc(-n2cc3ccc([N+](=O)[O-])cc3n2)cc1`, the AC50 under setting [1] is 0.58 µM [rising, partial curve, poor fit] and the AC50 under setting [2] is 6.51 µM [rising, single point]. Regarding `CC(Oc1ccc(Cl)cc1)C(=O)NNC(=S)NC(=O)c1ccco1` (stereo not drawn), the cell number change was -4.7%. The same measure, in the same setting: under `Cc1cc(C)n(S(=O)(=O)c2ccc(C)c(C)c2)n1` stands -4.76%. On the same count and under the same terms, the same measure for `CNC(=S)Nc1sc2c(c1C(=O)OC)CCC2`: -8.39%. With `O=C(Nc1ccsc1C(=O)O)c1ccccc1Cl`, the AC50 under setting [1] was 3.26 µM [falling, single point]. In the case of `COc1ccc(S(=O)(=O)NCCc2c[nH]c3ccc(C)cc23)cc1`, the cell number change was -7.02%. Moreover, the AC50 under setting [2] is 29.1 µM [falling, single point]. Turning to `O=C(NCc1ccco1)c1ccc(Cn2c(=O)c3sccc3n(Cc3ccc(F)cc3)c2=O)cc1`, the cell number change was -37.9%. For the same compound, the AC50 under setting [2] is 0.291 µM [rising, partial curve].

On to `Cc1cccc(-n2nc(C)c3c(C(=O)O)cc(-c4cccs4)nc32)c1`, for which the cell number change was -0.24%. Also, under setting [2], the AC50 was 0.116 µM [falling, partial curve, poor fit]. Regarding `Cc1coc2cc3oc(=O)c(CC(=O)N[C@@H](CC(C)C)C(=O)O)c(C)c3cc12`, the cell number change came out at 23%. Further, under setting [2], the AC50 was 8.2 µM [rising, partial curve, poor fit]. Take `CCOC(=O)c1cnc(-n2nc(C)cc2C)nc1Oc1ccc(C(=O)OC)cc1`: the AC50 is 0.13 µM [rising, full curve] under setting [1] and 0.13 µM [rising, full curve, poor fit] under setting [2].

The values are drawn from PubChem BioAssay AID2685 (National Center for Advancing Translational Sciences (NCATS), 2010).
